This is one part of the list. Small differences around the control level are noise.
What follows are targets tested with Cc1nc(Nc2ncc(C(=O)Nc3c(C)cccc3Cl)s2)cc(N2CCN(CCO)CC2)n1 [dasatinib] (assay: log2 fold change of tryptic peptide abundance, ligand vs vehicle (limited proteolysis) (log2 ratio); higher = more trypsin-susceptible (destabilized)). Settings: ligand concentration: 5 uM; sample: K562 cleared lysate.

Amino acid sequences for entries named in this document (tags omitted). A change or cut given only in a name is not applied to a line headed by its entry.
UniProt P31749: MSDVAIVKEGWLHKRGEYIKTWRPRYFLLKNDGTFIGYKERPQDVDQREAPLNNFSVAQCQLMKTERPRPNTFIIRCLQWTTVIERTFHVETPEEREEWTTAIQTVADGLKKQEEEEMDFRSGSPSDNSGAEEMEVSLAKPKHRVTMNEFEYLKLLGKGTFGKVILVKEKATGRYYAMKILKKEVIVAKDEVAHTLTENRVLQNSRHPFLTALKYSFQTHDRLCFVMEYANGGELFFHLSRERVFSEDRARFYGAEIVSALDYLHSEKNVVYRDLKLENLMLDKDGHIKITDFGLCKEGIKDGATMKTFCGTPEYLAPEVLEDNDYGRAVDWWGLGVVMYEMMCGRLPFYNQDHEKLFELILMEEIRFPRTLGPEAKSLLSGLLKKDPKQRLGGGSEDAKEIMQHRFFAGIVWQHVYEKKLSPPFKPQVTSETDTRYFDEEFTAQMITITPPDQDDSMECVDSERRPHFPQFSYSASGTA
UniProt P30622: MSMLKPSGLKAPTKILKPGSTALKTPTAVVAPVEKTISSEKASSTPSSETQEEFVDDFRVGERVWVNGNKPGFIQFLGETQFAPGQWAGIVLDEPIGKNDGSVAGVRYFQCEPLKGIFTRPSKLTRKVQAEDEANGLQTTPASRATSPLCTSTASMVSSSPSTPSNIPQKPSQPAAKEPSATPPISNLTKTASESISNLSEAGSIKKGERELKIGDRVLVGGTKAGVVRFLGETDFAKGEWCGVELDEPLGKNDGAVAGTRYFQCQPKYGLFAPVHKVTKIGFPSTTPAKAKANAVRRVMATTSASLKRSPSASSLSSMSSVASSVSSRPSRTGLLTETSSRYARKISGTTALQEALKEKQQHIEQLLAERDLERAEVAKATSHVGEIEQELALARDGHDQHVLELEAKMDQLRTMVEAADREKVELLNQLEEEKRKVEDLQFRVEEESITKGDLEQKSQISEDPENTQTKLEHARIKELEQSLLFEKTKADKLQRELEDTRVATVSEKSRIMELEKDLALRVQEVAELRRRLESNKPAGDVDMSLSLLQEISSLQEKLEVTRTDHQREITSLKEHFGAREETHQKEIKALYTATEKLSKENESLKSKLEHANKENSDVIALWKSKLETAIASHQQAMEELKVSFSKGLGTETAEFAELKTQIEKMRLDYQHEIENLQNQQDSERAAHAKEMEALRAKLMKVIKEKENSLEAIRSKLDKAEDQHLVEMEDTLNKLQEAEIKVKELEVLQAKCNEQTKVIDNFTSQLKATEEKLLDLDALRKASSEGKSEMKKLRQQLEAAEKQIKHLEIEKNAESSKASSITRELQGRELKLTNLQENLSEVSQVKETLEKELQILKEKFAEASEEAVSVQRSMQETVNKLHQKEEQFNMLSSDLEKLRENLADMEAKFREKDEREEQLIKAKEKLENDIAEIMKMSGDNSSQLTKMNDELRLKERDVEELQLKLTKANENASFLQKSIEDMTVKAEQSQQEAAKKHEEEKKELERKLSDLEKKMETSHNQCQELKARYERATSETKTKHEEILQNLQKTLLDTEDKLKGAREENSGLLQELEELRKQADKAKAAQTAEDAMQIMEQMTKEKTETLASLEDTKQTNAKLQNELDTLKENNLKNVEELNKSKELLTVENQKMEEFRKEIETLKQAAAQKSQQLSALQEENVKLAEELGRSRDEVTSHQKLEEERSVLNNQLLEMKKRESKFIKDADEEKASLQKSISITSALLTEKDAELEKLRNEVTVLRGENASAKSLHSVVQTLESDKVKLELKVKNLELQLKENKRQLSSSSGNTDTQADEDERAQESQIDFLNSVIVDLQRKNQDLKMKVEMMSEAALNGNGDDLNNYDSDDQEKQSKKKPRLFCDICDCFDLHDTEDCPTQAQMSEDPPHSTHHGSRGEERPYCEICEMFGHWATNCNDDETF
UniProt P42330: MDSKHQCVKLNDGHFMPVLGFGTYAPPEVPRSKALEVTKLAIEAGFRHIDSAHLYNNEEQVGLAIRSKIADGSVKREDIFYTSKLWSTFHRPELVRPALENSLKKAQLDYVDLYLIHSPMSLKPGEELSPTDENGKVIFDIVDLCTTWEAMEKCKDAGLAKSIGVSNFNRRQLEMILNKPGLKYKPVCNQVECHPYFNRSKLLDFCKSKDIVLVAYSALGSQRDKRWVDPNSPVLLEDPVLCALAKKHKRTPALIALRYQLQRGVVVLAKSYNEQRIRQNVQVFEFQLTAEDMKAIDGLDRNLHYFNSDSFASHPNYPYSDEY
UniProt P30043: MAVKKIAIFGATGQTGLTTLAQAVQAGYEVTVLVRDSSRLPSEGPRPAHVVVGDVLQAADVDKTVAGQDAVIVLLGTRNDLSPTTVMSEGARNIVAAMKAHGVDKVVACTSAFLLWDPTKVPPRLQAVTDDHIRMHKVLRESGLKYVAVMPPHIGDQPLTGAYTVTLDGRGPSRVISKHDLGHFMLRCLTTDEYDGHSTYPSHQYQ
UniProt P30101, whole entry: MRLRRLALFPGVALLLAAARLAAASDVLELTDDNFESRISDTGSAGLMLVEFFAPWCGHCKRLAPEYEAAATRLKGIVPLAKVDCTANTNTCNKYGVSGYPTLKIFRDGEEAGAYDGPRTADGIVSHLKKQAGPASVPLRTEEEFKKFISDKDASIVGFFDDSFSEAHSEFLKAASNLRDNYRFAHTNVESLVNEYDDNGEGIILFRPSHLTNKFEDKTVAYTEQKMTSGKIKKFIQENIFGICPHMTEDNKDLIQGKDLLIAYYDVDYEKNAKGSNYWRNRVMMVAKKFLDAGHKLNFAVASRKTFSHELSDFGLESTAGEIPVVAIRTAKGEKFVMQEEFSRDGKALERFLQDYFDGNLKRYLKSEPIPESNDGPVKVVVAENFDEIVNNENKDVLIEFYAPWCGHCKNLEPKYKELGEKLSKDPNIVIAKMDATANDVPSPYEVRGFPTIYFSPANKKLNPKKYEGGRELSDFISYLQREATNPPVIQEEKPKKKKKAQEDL
UniProt P38405, whole entry: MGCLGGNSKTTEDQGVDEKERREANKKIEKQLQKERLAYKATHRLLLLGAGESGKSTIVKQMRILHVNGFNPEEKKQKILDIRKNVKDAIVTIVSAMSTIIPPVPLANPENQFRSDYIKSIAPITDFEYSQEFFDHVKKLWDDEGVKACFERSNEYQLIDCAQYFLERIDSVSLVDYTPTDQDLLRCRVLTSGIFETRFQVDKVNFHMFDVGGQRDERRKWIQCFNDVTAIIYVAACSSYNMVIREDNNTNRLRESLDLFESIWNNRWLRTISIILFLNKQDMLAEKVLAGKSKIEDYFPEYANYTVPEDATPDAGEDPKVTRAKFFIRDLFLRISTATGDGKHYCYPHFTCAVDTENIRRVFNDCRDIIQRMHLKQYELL
UniProt P33992: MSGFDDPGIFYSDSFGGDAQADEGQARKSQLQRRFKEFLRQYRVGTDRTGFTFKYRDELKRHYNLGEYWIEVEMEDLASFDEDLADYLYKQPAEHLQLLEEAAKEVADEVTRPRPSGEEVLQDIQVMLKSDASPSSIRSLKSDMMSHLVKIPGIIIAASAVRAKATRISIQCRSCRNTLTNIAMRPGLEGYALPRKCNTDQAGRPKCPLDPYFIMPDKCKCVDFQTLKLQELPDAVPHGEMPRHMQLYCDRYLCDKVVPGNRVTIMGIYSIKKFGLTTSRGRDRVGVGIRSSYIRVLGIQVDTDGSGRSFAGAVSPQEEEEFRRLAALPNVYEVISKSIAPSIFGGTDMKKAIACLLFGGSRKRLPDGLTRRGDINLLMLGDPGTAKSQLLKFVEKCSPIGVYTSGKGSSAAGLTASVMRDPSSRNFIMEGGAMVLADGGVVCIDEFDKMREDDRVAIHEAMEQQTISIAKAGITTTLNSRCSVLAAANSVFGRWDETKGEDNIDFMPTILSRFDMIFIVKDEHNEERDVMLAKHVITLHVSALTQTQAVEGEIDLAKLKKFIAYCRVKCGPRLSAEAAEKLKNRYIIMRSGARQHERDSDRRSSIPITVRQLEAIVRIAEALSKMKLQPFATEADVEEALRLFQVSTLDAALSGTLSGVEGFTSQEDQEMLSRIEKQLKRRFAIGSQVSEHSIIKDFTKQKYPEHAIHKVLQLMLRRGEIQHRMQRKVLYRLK
UniProt P43355: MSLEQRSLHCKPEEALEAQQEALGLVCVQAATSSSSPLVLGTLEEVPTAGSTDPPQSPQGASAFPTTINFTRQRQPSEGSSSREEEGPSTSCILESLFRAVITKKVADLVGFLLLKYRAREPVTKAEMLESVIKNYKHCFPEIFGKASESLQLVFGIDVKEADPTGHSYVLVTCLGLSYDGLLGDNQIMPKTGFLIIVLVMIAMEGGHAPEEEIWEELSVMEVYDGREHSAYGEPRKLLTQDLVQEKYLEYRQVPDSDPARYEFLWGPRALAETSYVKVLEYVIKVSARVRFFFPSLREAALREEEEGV
UniProt P43897: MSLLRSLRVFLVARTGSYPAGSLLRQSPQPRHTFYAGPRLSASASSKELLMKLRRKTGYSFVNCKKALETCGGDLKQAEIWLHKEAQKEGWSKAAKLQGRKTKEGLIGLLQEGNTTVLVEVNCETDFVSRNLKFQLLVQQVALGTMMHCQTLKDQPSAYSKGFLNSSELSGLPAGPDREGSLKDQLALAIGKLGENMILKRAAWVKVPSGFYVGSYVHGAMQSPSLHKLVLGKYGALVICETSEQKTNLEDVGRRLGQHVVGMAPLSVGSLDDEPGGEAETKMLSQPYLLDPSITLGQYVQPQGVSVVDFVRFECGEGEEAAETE
UniProt P34913, whole entry: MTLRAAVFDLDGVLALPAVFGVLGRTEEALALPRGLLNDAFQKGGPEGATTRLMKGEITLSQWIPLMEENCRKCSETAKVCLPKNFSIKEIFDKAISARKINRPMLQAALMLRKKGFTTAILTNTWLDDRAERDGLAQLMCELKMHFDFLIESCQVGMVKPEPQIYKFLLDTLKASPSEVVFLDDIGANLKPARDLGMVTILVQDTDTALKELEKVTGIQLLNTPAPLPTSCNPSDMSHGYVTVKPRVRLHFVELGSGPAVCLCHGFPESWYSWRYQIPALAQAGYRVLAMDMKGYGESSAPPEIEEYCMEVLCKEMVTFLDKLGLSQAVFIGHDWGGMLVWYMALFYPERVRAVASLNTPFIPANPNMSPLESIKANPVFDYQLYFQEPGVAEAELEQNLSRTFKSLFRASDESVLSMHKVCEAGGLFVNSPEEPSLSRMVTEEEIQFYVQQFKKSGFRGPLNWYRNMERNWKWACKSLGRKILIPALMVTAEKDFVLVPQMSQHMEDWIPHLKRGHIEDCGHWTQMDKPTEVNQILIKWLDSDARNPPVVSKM
UniProt P35659: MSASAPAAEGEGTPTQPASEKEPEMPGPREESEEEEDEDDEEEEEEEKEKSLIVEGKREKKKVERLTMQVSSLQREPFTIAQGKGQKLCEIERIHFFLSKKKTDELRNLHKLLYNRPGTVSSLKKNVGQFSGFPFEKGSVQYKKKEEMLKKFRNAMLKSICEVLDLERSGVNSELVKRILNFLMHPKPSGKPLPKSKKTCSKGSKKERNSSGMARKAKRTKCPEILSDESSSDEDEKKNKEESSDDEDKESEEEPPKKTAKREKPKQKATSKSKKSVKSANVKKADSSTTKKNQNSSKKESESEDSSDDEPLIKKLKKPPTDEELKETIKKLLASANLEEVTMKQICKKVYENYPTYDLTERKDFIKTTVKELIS
UniProt P31323, whole entry: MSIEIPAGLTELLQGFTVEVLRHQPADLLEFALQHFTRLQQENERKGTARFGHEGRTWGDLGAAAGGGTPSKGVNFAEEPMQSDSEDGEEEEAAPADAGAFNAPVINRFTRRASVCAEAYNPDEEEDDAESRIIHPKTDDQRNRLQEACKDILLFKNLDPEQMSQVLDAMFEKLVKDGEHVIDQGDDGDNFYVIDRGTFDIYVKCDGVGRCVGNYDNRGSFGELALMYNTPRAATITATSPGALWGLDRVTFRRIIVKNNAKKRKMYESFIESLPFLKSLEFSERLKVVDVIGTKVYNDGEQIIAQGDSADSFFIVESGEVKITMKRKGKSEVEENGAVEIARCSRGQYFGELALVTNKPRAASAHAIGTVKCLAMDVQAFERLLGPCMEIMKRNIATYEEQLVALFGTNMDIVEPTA
UniProt P30085: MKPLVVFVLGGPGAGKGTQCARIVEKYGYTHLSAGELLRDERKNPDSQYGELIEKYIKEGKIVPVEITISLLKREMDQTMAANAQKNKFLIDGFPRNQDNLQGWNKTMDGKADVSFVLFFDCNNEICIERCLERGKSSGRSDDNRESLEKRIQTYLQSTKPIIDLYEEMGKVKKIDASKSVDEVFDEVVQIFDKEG
UniProt P41227: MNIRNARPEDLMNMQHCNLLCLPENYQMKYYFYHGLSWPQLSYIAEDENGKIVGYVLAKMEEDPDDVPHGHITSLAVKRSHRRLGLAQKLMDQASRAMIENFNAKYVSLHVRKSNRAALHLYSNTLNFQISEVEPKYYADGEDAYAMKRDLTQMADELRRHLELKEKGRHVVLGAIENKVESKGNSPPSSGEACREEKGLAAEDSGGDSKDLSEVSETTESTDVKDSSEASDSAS

Target | log2 fold change
AKT1 (peptide sequence: VTMNEFEYLK, peptide start residue: 145) (UniProt P31749) | 0.285
CLIP1 (peptide sequence: VELLNQLEEEKR, peptide start residue: 425) (UniProt P30622) | 0.187
HADHA (peptide sequence: CLAPMMSEVIR, peptide start residue: 550) (UniProt P40939) | -0.104
MYH11 (peptide sequence: DLGEELEALK, peptide start residue: 1136) (UniProt P35749) | 0.1
AKR1C3 (peptide sequence: SKALEVTK, peptide start residue: 32) (UniProt P42330) | 0.751
BLVRB (peptide sequence: LPSEGPRPAHVVVGDVLQAADVDK, peptide start residue: 40) (UniProt P30043) | 0.268
GTF2F1 (peptide sequence: TLTAEEAEEEWERR, peptide start residue: 154) (UniProt P35269) | 0.0726
RRM2 (peptide sequence: AAAPGVEDEPLLR, peptide start residue: 62) (UniProt P31350) | -0.106
ARHGAP25 (peptide sequence: TQTLPNRKCFLTSAFQGANSSK, peptide start residue: 440) (UniProt P42331) | 0.141
ACSL1 (peptide sequence: GPNVFQGYLKDPAK, peptide start residue: 512) (UniProt P33121) | -0.45
PPP1R2 (peptide sequence: GNVDEELSKK, peptide start residue: 34) (UniProt P41236) | 0.0418
SNCA (peptide sequence: TKEGVVHGVATVAEK, peptide start residue: 44) (UniProt P37840) | -0.216
INPP5B (peptide sequence: NITQLSYQSHMALK, peptide start residue: 612) (UniProt P32019) | -0.366
PDIA3 (peptide sequence: RLAPEYEAAATR, peptide start residue: 62) (UniProt P30101) | 0.129
YWHAB (peptide sequence: MKGDYFR, peptide start residue: 121) (UniProt P31946) | 0.0831
PHB (peptide sequence: QVAQQEAER, peptide start residue: 187) (UniProt P35232) | 0.574
UniProt P38405 (peptide sequence: FQVDKVNFHMFDVGGQR, peptide start residue: 855) | -0.108
GRN (peptide sequence: WDAPLRDPALR, peptide start residue: 580) (UniProt P28799) | -0.00543

Target | log2 fold change
MCM5 (peptide sequence: AIACLLFGGSR, peptide start residue: 352) (UniProt P33992) | -0.111
MAGEA1 (peptide sequence: KLLTQDLVQEK, peptide start residue: 237) (UniProt P43355) | -0.163
TSFM (peptide sequence: VPSGFYVGSYVHGAMQSPSLHK, peptide start residue: 207) (UniProt P43897) | 0.111
EPHX2 (peptide sequence: TEEALALPR, peptide start residue: 26) (UniProt P34913) | 0.206
DEK (peptide sequence: KPPTDEELKETIK, peptide start residue: 318) (UniProt P35659) | 0.304
UniProt P30520 (peptide sequence: AHIVFDFHQAADGIQEQQR, peptide start residue: 133) | 0.2
TTK (peptide sequence: SECRDLVVPGSKPSGNDSCELR, peptide start residue: 304) (UniProt P33981) | 0.366
PRKAR2B (peptide sequence: LVKDGEHVIDQGDDGDNFYVIDR, peptide start residue: 174) (UniProt P31323) | 0.161
CMPK1 (peptide sequence: MKPLVVFVLGGPGAGK, peptide start residue: 1) (UniProt P30085) | 0.128
PPM1A (peptide sequence: HNAQGQGNGLR, peptide start residue: 13) (UniProt P35813) | 0.369
MTOR (peptide sequence: YHPQALIYPLTVASK, peptide start residue: 1967) (UniProt P42345) | -0.519
GDI1 (peptide sequence: KQNDVFGEAEQ, peptide start residue: 437) (UniProt P31150) | 0.00162
UniProt P41227 (peptide sequence: GRHVVLGAIENKVESK, peptide start residue: 168) | -0.46
ACADSB (peptide sequence: YAIGSLNEGR, peptide start residue: 285) (UniProt P45954) | -0.0666
PAFAH1B1 (peptide sequence: SNGYEEAYSVFKK, peptide start residue: 21) (UniProt P43034) | -0.505
PCGF2 (peptide sequence: KGPLENGDGDKEK, peptide start residue: 148) (UniProt P35227) | 0.212
HPCAL1 (peptide sequence: LSLEEFIR, peptide start residue: 164) (UniProt P37235) | 0.0937
ARL4A (peptide sequence: IKVTLGNSK, peptide start residue: 59) (UniProt P40617) | -0.543

Taken from above:
Under log2 fold change, AKT1 (peptide sequence: VTMNEFEYLK, peptide start residue: 145) (UniProt P31749) has 0.285
Under log2 fold change, MTOR (peptide sequence: YHPQALIYPLTVASK, peptide start residue: 1967) (UniProt P42345) has -0.519
Under log2 fold change, PRKAR2B (peptide sequence: LVKDGEHVIDQGDDGDNFYVIDR, peptide start residue: 174) (UniProt P31323) has 0.161
